Values quoted from earlier work as cited in US10370362B2, “Pyrazine derivatives with extended conjugation and methods of using the same in optical applications” (MediBeacon Inc., priority 2006, dated 2019).
For at least one compound, name, drawing or mass did not settle the structure.

Conditions: figure legends; conventional visible and NIR dyes

Question: With O=C1OC2(c3ccc(O)cc3Oc3cc(O)ccc32)c2ccccc21 [Fluorescein] as the compound, how does the λmax read?
Answer: The λmax was 496.
